According to patent publication US20240123070A1, “EPITOPE PEPTIDE OF RAS G13D MUTANT AND T CELL RECEPTOR RECOGNIZING RAS G13D MUTANT” (SHANGHAI GENBASE BIOTECHNOLOGY CO., LTD., priority 2021, published 2024):

B1: β95Q-Y: B8.2.4 TCR point mutant, Vβ-CDR3 95Q to Y; CDR3β ASSYTVPPQH (protein)
TCR alpha: AQKITQTQPGMFVQEKEAVTLDCTYDTSDPSYGLFWYKQPSSGEMIFLIYQGSYDQQNATEGRYSLNFQKARKSANLVISASQLGDSAMYFCAMRERTGTASKLTFGTGTRLQVTLDIQNPEPAVYQLKDPRSQDSTLCLFTDFDSQINVPKTMESGTFITDKTVLDMKAMDSKSNGAIAWSNQTSFTCQDIFKETNATYPSSDVPCDATLTEKSFETDMNLNFQNLSVMGLRILLLKVAGFNLLMTLRLWSS
TCR beta: DVKVTQSSRYLVKRTGEKVFLECVQDMDHENMFWYRQDPGLGLRLIYFSYDVKMKEKGDIPEGYSVSREKKERFSLILESASTNQTSMYLCASSYTVPPQHFGDGTRLSILEDLRNVTPPKVSLFEPSKAEIANKQKATLVCLARGFFPDHVELSWWVNGKEVHSGVSTDPQAYKESNYSYCLSSRLRVSATFWHNPRNHFRCQVQFHGLSEEDKWPEGSPKPVTQNISAEAWGRADCGITSASYQQGVLSATILYEILLGKATLYAVLVSTLVVMAMVKRKNS
B2: β96T-A: B8.2.4 TCR point mutant, Vβ-CDR3 96T to A; CDR3β ASSQAVPPQH (protein)
TCR alpha: AQKITQTQPGMFVQEKEAVTLDCTYDTSDPSYGLFWYKQPSSGEMIFLIYQGSYDQQNATEGRYSLNFQKARKSANLVISASQLGDSAMYFCAMRERTGTASKLTFGTGTRLQVTLDIQNPEPAVYQLKDPRSQDSTLCLFTDFDSQINVPKTMESGTFITDKTVLDMKAMDSKSNGAIAWSNQTSFTCQDIFKETNATYPSSDVPCDATLTEKSFETDMNLNFQNLSVMGLRILLLKVAGFNLLMTLRLWSS
TCR beta: DVKVTQSSRYLVKRTGEKVFLECVQDMDHENMFWYRQDPGLGLRLIYFSYDVKMKEKGDIPEGYSVSREKKERFSLILESASTNQTSMYLCASSQAVPPQHFGDGTRLSILEDLRNVTPPKVSLFEPSKAEIANKQKATLVCLARGFFPDHVELSWWVNGKEVHSGVSTDPQAYKESNYSYCLSSRLRVSATFWHNPRNHFRCQVQFHGLSEEDKWPEGSPKPVTQNISAEAWGRADCGITSASYQQGVLSATILYEILLGKATLYAVLVSTLVVMAMVKRKNS
B3: β96T-C: B8.2.4 TCR point mutant, Vβ-CDR3 96T to C; CDR3β ASSQCVPPQH (protein)
TCR alpha: AQKITQTQPGMFVQEKEAVTLDCTYDTSDPSYGLFWYKQPSSGEMIFLIYQGSYDQQNATEGRYSLNFQKARKSANLVISASQLGDSAMYFCAMRERTGTASKLTFGTGTRLQVTLDIQNPEPAVYQLKDPRSQDSTLCLFTDFDSQINVPKTMESGTFITDKTVLDMKAMDSKSNGAIAWSNQTSFTCQDIFKETNATYPSSDVPCDATLTEKSFETDMNLNFQNLSVMGLRILLLKVAGFNLLMTLRLWSS
TCR beta: DVKVTQSSRYLVKRTGEKVFLECVQDMDHENMFWYRQDPGLGLRLIYFSYDVKMKEKGDIPEGYSVSREKKERFSLILESASTNQTSMYLCASSQCVPPQHFGDGTRLSILEDLRNVTPPKVSLFEPSKAEIANKQKATLVCLARGFFPDHVELSWWVNGKEVHSGVSTDPQAYKESNYSYCLSSRLRVSATFWHNPRNHFRCQVQFHGLSEEDKWPEGSPKPVTQNISAEAWGRADCGITSASYQQGVLSATILYEILLGKATLYAVLVSTLVVMAMVKRKNS
B4: β96T-D: B8.2.4 TCR point mutant, Vβ-CDR3 96T to D (protein)
TCR alpha: AQKITQTQPGMFVQEKEAVTLDCTYDTSDPSYGLFWYKQPSSGEMIFLIYQGSYDQQNATEGRYSLNFQKARKSANLVISASQLGDSAMYFCAMRERTGTASKLTFGTGTRLQVTLDIQNPEPAVYQLKDPRSQDSTLCLFTDFDSQINVPKTMESGTFITDKTVLDMKAMDSKSNGAIAWSNQTSFTCQDIFKETNATYPSSDVPCDATLTEKSFETDMNLNFQNLSVMGLRILLLKVAGFNLLMTLRLWSS
TCR beta: DVKVTQSSRYLVKRTGEKVFLECVQDMDHENMFWYRQDPGLGLRLIYFSYDVKMKEKGDIPEGYSVSREKKERFSLILESASTNQTSMYLCASSQDVPPQHFGDGTRLSILEDLRNVTPPKVSLFEPSKAEIANKQKATLVCLARGFFPDHVELSWWVNGKEVHSGVSTDPQAYKESNYSYCLSSRLRVSATFWHNPRNHFRCQVQFHGLSEEDKWPEGSPKPVTQNISAEAWGRADCGITSASYQQGVLSATILYEILLGKATLYAVLVSTLVVMAMVKRKNS
B5: β96T-E: B8.2.4 TCR point mutant, Vβ-CDR3 96T to E (protein)
TCR alpha: AQKITQTQPGMFVQEKEAVTLDCTYDTSDPSYGLFWYKQPSSGEMIFLIYQGSYDQQNATEGRYSLNFQKARKSANLVISASQLGDSAMYFCAMRERTGTASKLTFGTGTRLQVTLDIQNPEPAVYQLKDPRSQDSTLCLFTDFDSQINVPKTMESGTFITDKTVLDMKAMDSKSNGAIAWSNQTSFTCQDIFKETNATYPSSDVPCDATLTEKSFETDMNLNFQNLSVMGLRILLLKVAGFNLLMTLRLWSS
TCR beta: DVKVTQSSRYLVKRTGEKVFLECVQDMDHENMFWYRQDPGLGLRLIYFSYDVKMKEKGDIPEGYSVSREKKERFSLILESASTNQTSMYLCASSQEVPPQHFGDGTRLSILEDLRNVTPPKVSLFEPSKAEIANKQKATLVCLARGFFPDHVELSWWVNGKEVHSGVSTDPQAYKESNYSYCLSSRLRVSATFWHNPRNHFRCQVQFHGLSEEDKWPEGSPKPVTQNISAEAWGRADCGITSASYQQGVLSATILYEILLGKATLYAVLVSTLVVMAMVKRKNS
B6: β96T-F: B8.2.4 TCR point mutant, Vβ-CDR3 96T to F (protein)
TCR alpha: AQKITQTQPGMFVQEKEAVTLDCTYDTSDPSYGLFWYKQPSSGEMIFLIYQGSYDQQNATEGRYSLNFQKARKSANLVISASQLGDSAMYFCAMRERTGTASKLTFGTGTRLQVTLDIQNPEPAVYQLKDPRSQDSTLCLFTDFDSQINVPKTMESGTFITDKTVLDMKAMDSKSNGAIAWSNQTSFTCQDIFKETNATYPSSDVPCDATLTEKSFETDMNLNFQNLSVMGLRILLLKVAGFNLLMTLRLWSS
TCR beta: DVKVTQSSRYLVKRTGEKVFLECVQDMDHENMFWYRQDPGLGLRLIYFSYDVKMKEKGDIPEGYSVSREKKERFSLILESASTNQTSMYLCASSQFVPPQHFGDGTRLSILEDLRNVTPPKVSLFEPSKAEIANKQKATLVCLARGFFPDHVELSWWVNGKEVHSGVSTDPQAYKESNYSYCLSSRLRVSATFWHNPRNHFRCQVQFHGLSEEDKWPEGSPKPVTQNISAEAWGRADCGITSASYQQGVLSATILYEILLGKATLYAVLVSTLVVMAMVKRKNS
B7: β96T-G: B8.2.4 TCR point mutant, Vβ-CDR3 96T to G (protein)
TCR alpha: AQKITQTQPGMFVQEKEAVTLDCTYDTSDPSYGLFWYKQPSSGEMIFLIYQGSYDQQNATEGRYSLNFQKARKSANLVISASQLGDSAMYFCAMRERTGTASKLTFGTGTRLQVTLDIQNPEPAVYQLKDPRSQDSTLCLFTDFDSQINVPKTMESGTFITDKTVLDMKAMDSKSNGAIAWSNQTSFTCQDIFKETNATYPSSDVPCDATLTEKSFETDMNLNFQNLSVMGLRILLLKVAGFNLLMTLRLWSS
TCR beta: DVKVTQSSRYLVKRTGEKVFLECVQDMDHENMFWYRQDPGLGLRLIYFSYDVKMKEKGDIPEGYSVSREKKERFSLILESASTNQTSMYLCASSQGVPPQHFGDGTRLSILEDLRNVTPPKVSLFEPSKAEIANKQKATLVCLARGFFPDHVELSWWVNGKEVHSGVSTDPQAYKESNYSYCLSSRLRVSATFWHNPRNHFRCQVQFHGLSEEDKWPEGSPKPVTQNISAEAWGRADCGITSASYQQGVLSATILYEILLGKATLYAVLVSTLVVMAMVKRKNS

System: murine TCRβ constant region
Assay: mTCRβ expression detection on Jurkat-NFAT-Luc cells
Type: cell-based
Details: TCR mutant transduced Jurkat-NFAT-Luc cells

Question: With B1 as the molecule, how does the mTCRβ % read?
Answer: 78.4%

Question: B2 was tested. Which mTCRβ % did it give?
Answer: 76.4%

Question: With B3 as the molecule, how does the mTCRβ % read?
Answer: 82.3%

Question: Which mTCRβ % does the source give for B4 here?
Answer: 73.8%

Question: Which mTCRβ % does the source give for B5 here?
Answer: 73.8%

Question: Which mTCRβ % does the source give for B6 here?
Answer: 76.9%

Question: Which mTCRβ % does the source give for B7 here?
Answer: 55.3%
